Results taken from patent US8043804.
These are yes or no findings as the source states them, for the method shown. Binding seen in cells or lysates may run through a third protein. Some results given as binding are weak or reduced against the parent protein; the word gives no strength.

By UniProt entry, the sequences of proteins in these tests, tags left out. Where a name states a change or a piece, a line headed by the entry shows the natural chain unless it says otherwise. Residues count along the entry.
UniProt Q96EB6: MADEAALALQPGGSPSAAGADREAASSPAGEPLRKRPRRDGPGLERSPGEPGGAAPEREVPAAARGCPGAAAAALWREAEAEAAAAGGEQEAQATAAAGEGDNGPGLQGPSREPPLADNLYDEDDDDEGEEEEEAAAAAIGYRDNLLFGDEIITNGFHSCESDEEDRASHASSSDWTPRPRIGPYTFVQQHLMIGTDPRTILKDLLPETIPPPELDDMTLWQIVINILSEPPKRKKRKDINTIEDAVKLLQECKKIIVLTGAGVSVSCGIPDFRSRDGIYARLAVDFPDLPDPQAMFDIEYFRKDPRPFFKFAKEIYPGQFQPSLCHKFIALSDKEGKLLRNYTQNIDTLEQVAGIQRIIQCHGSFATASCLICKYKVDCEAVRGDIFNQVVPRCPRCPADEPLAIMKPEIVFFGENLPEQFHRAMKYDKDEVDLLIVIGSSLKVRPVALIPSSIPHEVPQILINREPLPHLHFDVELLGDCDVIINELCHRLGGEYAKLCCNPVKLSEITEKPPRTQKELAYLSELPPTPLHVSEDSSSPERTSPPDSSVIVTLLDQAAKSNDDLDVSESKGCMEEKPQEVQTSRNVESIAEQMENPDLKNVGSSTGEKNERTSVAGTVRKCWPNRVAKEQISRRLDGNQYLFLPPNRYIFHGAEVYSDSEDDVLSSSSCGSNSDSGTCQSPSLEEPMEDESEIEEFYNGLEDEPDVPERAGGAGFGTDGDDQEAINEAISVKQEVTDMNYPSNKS
UniProt Q8N163, residues 1-399: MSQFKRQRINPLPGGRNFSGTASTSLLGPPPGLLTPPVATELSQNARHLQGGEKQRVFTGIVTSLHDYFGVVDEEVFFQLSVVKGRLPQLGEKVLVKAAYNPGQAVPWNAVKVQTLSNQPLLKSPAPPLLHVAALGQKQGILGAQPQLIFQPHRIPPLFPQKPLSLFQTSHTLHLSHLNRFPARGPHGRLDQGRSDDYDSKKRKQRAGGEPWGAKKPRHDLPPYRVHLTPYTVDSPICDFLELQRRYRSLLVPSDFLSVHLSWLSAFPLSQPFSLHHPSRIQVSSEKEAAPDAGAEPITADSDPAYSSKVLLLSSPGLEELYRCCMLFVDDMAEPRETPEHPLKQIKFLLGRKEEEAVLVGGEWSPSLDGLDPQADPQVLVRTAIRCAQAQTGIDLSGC

Experiments:
[1] = biological target: ^35S-labelled in vitro translated SIRT1 (human) (UniProt Q96EB6); experiment: GST pull-down with in vitro translated ^35S-labelled SIRT1 (FIG. 7)
[2] = biological target: ^35S-labelled in vitro translated SIRT1 (human) (UniProt Q96EB6); experiment: GST pull-down of ^35S-labelled in vitro translated SIRT1, autoradiography (FIG. 7)
[3] = biological target: DBC1 (Deleted in Breast Cancer 1) protein (human) (UniProt Q8N163); experiment: reciprocal co-immunoprecipitation from U2OS cell extracts, Western blot
[4] = biological target: DBC1 (Deleted in Breast Cancer 1) protein (human) (UniProt Q8N163); experiment: co-immunoprecipitation with DBC1 specific antibody, Western blot (FIG. 2b)
[5] = biological target: DBC1 (Deleted in Breast Cancer 1) protein (human) (UniProt Q8N163); experiment: co-immunoprecipitation with a DBC1-specific antibody from U2OS cells, Western blot (FIG. 6)

In the case of GST-NT-DBC1 (from UniProt Q8N163 1-399), the binding [1] is reported as “binds” and the binding [2] is reported as “binds”.
“SIRT1 (Silencing mating type information regulator 2 homolog) (from UniProt Q96EB6 2-747) (enzyme)” was tested, and the binding [3] was “binds”, the binding [4] was “binds” and the binding [5] was “binds”.
